Counter-ions that a name gives are not always drawn. This is one part of the list. Most entries show no effect beyond the scatter of the controls.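 Reh, a human leukemia cell line, is read out by flow cytometry as the median γH2AX antibody signal in S-phase cells; the score counts standard deviations from the median difference of each paired plate set. Scores above 2.5 were candidate hits; scores below -2 mark compounds lowering MK1775-induced damage.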
Test system: Reh
Test: Z' of S-phase gammaH2AX difference (drug + MK1775 minus drug alone) (Z-score); higher = stronger synergistic S-phase DNA damage with MK1775
Conditions: MK1775 concentration 400 nM; first compound 10 µM; 4 h

Compound | Z' of S-phase gammaH2AX difference (Z-score)
Cc1ccccc1N1CCN(S(=O)(=O)C[C@]23CC[C@H](CC2NC(=O)[C@@H](N)CCS(C)(=O)=O)C3(C)C)CC1 (stereo not given in full) + C=CCn1c(=O)c2cnc(Nc3ccc(N4CCN(C)CC4)cc3)nc2n1-c1cccc(C(C)(C)O)n1 [MK1775] | inactive: 0.109
O=C1N=C(O)NC1(c1ccccc1)c1ccccc1 [Phenytoin sodium] + C=CCn1c(=O)c2cnc(Nc3ccc(N4CCN(C)CC4)cc3)nc2n1-c1cccc(C(C)(C)O)n1 [MK1775] | inactive: -0.721
NCCC(=O)NCCc1c[nH]cn1 [Carcinine dihydrochloride] + C=CCn1c(=O)c2cnc(Nc3ccc(N4CCN(C)CC4)cc3)nc2n1-c1cccc(C(C)(C)O)n1 [MK1775] | inactive: -0.565
COc1cc2c(cc1OC)-c1c/c(=N\c3c(C)cc(C)cc3C)n(C)c(=O)n1CC2 [Trequinsin hydrochloride] + C=CCn1c(=O)c2cnc(Nc3ccc(N4CCN(C)CC4)cc3)nc2n1-c1cccc(C(C)(C)O)n1 [MK1775] | inactive: -0.282
Oc1nc(-c2ccc(C(F)(F)F)cc2)nc2c1CSCC2 + C=CCn1c(=O)c2cnc(Nc3ccc(N4CCN(C)CC4)cc3)nc2n1-c1cccc(C(C)(C)O)n1 [MK1775] | inactive: -0.0584
O=C1OC(=O)[C@H]2[C@@H]1[C@@H]1CC[C@H]2O1 [Norcantharidin] + C=CCn1c(=O)c2cnc(Nc3ccc(N4CCN(C)CC4)cc3)nc2n1-c1cccc(C(C)(C)O)n1 [MK1775] | inactive: -0.616
O=c1[nH]c2cc(Cl)c(Cl)cc2[nH]c1=O [6,7-Dichloroquinoxaline-2,3-dione] + C=CCn1c(=O)c2cnc(Nc3ccc(N4CCN(C)CC4)cc3)nc2n1-c1cccc(C(C)(C)O)n1 [MK1775] | inactive: 1.79
CCCCC1(C2CCCC2)Cc2cc(OCC(=O)O)c(Cl)c(Cl)c2C1=O (stereo in doubt) [R(+)-Butylindazone] + C=CCn1c(=O)c2cnc(Nc3ccc(N4CCN(C)CC4)cc3)nc2n1-c1cccc(C(C)(C)O)n1 [MK1775] | inactive: -0.449
Cn1cncc1[C@@](N)(c1ccc(Cl)cc1)c1ccc2c(c1)c(-c1cccc(Cl)c1)cc(=O)n2C [Tipifarnib (Zarnestra)] + C=CCn1c(=O)c2cnc(Nc3ccc(N4CCN(C)CC4)cc3)nc2n1-c1cccc(C(C)(C)O)n1 [MK1775] | inactive: 0.0347
Cc1nnc(SCC2=C(C(=O)O)N3C(=O)[C@@H](NC(=O)Cn4cnnn4)[C@H]3SC2)s1 [Cefazolin sodium] + C=CCn1c(=O)c2cnc(Nc3ccc(N4CCN(C)CC4)cc3)nc2n1-c1cccc(C(C)(C)O)n1 [MK1775] | inactive: 1.33

— the supplement of paper PMC5355238
